Measured values reported in publication PMC4243950, “Characterization of the accessory protein ClpT1 from Arabidopsis thaliana: oligomerization status and interaction with Hsp100 chaperones” (BMC Plant Biology, 2014).
These are yes or no findings as the source states them, for the method shown.

Molecular target: E. coli ferredoxin (E. coli) (UniProt P0A9R4)
Assay: condition: 25 μM protein, up to 50-fold molar excess of EGS; cross-linking; EGS at 10, 20, 30 and 50-fold molar excess, 25 μM protein, 50 mM Hepes pH 7.5, 100 mM NaCl, 30 min at room temperature; SDS-PAGE with Coomassie staining; both purified

- binding: no binding
B1: E. coli ferredoxin (protein, UniProt P0A9R4 1-111)
chain: MPKIVILPHQDLCPDGAVLEANSGETILDAALRNGIEIEHACEKSCACTTCHCIVREGFDSLPESSEQEDDMLDKAWGLEPESRLSCQARVTDEDLVVEIPRYTINHAREH
